Results are given in words; binding and its absence hold for the method and conditions named. In cells and extracts the contact can be indirect. Binding can be weak; no strength is given.

Chains of the proteins cited; added tags and fusions are not shown.
UniProt Q99961: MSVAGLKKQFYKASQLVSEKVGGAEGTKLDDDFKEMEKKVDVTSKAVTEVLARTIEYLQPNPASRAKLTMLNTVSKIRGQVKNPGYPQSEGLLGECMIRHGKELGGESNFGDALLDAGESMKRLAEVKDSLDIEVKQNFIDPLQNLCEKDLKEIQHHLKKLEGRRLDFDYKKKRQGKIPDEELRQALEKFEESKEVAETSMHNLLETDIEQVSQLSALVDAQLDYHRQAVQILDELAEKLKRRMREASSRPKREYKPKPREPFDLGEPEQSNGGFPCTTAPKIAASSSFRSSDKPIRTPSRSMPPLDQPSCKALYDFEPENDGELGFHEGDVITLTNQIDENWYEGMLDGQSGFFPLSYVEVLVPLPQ

This note sets out measurements from PMC8065113.

For the test, the target named is Endophilin (endogenous, precipitated with anti-Endophilin A2 clone A-11) (human (endogenous in RPE1)) (UniProt Q99961). Nature of the test: co-IP; anti-Endophilin antibody (clone A-11) coupled to hydrazide magnetic beads; fraction 7 of a sucrose gradient of membranes from RPE1 cells stimulated with 10% FBS (20% final) for 10 min; overnight 4 °C; elution with glycine pH 2; immunoblot.

Turning to “Bin1 (endogenous) (from UniProt O00499-7)”, the binding result was “binds”.
